Data taken from patent US20060257938A1, “Method of screening for drugs that block ligand binding to a lipid binding protein” (priority 2005, published 2006).

B1: 14L 72G 117V (protein, listed as Rattus norvegicus)
chain: AFDGTWKVDRNENLEKFMEKMGINVVKRKLGAHDNLKLTITQEGNKFTVKESSNFRNIDVVFELGVDFAYSGADGTELTGTWTMEGNKLVGKFKRVDNGKELIAVREISGNELIQTVTYEGVEAKRIFKKE
modifications: PEPTIDE (1)...(131) wild-type rat intestinal fatty acid binding protein
B2: 14L 18S 31L 73V 117A 72A (protein, listed as Rattus norvegicus)
chain: B1 chain with M18S, G31L, G72A, A73V, V117A
modifications: PEPTIDE (1)...(131) wild-type rat intestinal fatty acid binding protein
B3: 55Y, 72A (protein, listed as Rattus norvegicus)
chain: B1 chain with L14Y, F55Y, G72A, V117Y
modifications: PEPTIDE (1)...(131) wild-type rat intestinal fatty acid binding protein
B4: 23L, 72A (protein, listed as Rattus norvegicus)
chain: B1 chain with L14Y, I23L, G72A, V117Y
modifications: PEPTIDE (1)...(131) wild-type rat intestinal fatty acid binding protein
B5: 82F, 72A (protein, listed as Rattus norvegicus)
chain: B1 chain with L14Y, G72A, W82F, V117Y
modifications: PEPTIDE (1)...(131) wild-type rat intestinal fatty acid binding protein
B6: 11W, 72A (protein, listed as Rattus norvegicus)
chain: B1 chain with N11W, L14Y, G72A, V117Y
modifications: PEPTIDE (1)...(131) wild-type rat intestinal fatty acid binding protein
B7: 78A, 72A (protein, listed as Rattus norvegicus)
chain: B1 chain with L14Y, G72A, L78A, V117Y
modifications: PEPTIDE (1)...(131) wild-type rat intestinal fatty acid binding protein
B8: 106M, 72A (protein, listed as Rattus norvegicus)
chain: B1 chain with L14Y, G72A, R106M, V117Y
modifications: PEPTIDE (1)...(131) wild-type rat intestinal fatty acid binding protein
B9: 78Y, 72A (protein, listed as Rattus norvegicus)
chain: B1 chain with L14Y, G72A, L78Y, V117Y
modifications: PEPTIDE (1)...(131) wild-type rat intestinal fatty acid binding protein
B10: 21I, 72A (protein, listed as Rattus norvegicus)
chain: B1 chain with L14Y, M21I, G72A, V117Y
modifications: PEPTIDE (1)...(131) wild-type rat intestinal fatty acid binding protein
B11: 104Y, 72A (protein, listed as Rattus norvegicus)
chain: B1 chain with L14Y, G72A, A104Y, V117Y
modifications: PEPTIDE (1)...(131) wild-type rat intestinal fatty acid binding protein
B12: 78I, 72A (protein, listed as Rattus norvegicus)
chain: B1 chain with L14Y, G72A, L78I, V117Y
modifications: PEPTIDE (1)...(131) wild-type rat intestinal fatty acid binding protein
B13: 78V, 72A (protein, listed as Rattus norvegicus)
chain: B1 chain with L14Y, G72A, L78V, V117Y
modifications: PEPTIDE (1)...(131) wild-type rat intestinal fatty acid binding protein
B14: 55I, 72A (protein, listed as Rattus norvegicus)
chain: B1 chain with L14Y, F55I, G72A, V117Y
modifications: PEPTIDE (1)...(131) wild-type rat intestinal fatty acid binding protein
B15: 38Q 106W 117A 72A (protein, listed as Rattus norvegicus)
chain: B1 chain with L14Y, L38Q, G72A, R106W, V117A
modifications: PEPTIDE (1)...(131) wild-type rat intestinal fatty acid binding protein
B16: 38I 72G (protein, listed as Rattus norvegicus)
chain: B1 chain with L14Y, L38I, V117Y
modifications: PEPTIDE (1)...(131) wild-type rat intestinal fatty acid binding protein
B17: 21V, 72A (protein, listed as Rattus norvegicus)
chain: B1 chain with L14Y, M21V, G72A, V117Y
modifications: PEPTIDE (1)...(131) wild-type rat intestinal fatty acid binding protein
B18: 11V, 72A (protein, listed as Rattus norvegicus)
chain: B1 chain with N11V, L14Y, G72A, V117Y
modifications: PEPTIDE (1)...(131) wild-type rat intestinal fatty acid binding protein
B19: 14V 18L 73V 117A 72A (protein, listed as Rattus norvegicus)
chain: B1 chain with L14V, M18L, G72A, A73V, V117A
modifications: PEPTIDE (1)...(131) wild-type rat intestinal fatty acid binding protein
B20: 115N, 72A (protein, listed as Rattus norvegicus)
chain: B1 chain with L14Y, G72A, Q115N, V117Y
modifications: PEPTIDE (1)...(131) wild-type rat intestinal fatty acid binding protein
B21: 115H, 72A (protein, listed as Rattus norvegicus)
chain: B1 chain with L14Y, G72A, Q115H, V117Y
modifications: PEPTIDE (1)...(131) wild-type rat intestinal fatty acid binding protein
B22: 14L 72G (protein, listed as Rattus norvegicus)
chain: B1 chain with V117Y
modifications: PEPTIDE (1)...(131) wild-type rat intestinal fatty acid binding protein
B23: 104G, 72A (protein, listed as Rattus norvegicus)
chain: B1 chain with L14Y, G72A, A104G, V117Y
modifications: PEPTIDE (1)...(131) wild-type rat intestinal fatty acid binding protein
B24: 21W 72A (protein, listed as Rattus norvegicus)
chain: B1 chain with L14Y, M21W, G72A, V117Y
modifications: PEPTIDE (1)...(131) wild-type rat intestinal fatty acid binding protein
B25: 82V, 72A (protein, listed as Rattus norvegicus)
chain: B1 chain with L14Y, G72A, W82V, V117Y
modifications: PEPTIDE (1)...(131) wild-type rat intestinal fatty acid binding protein
B26: 11M, 72A (protein, listed as Rattus norvegicus)
chain: B1 chain with N11M, L14Y, G72A, V117Y
modifications: PEPTIDE (1)...(131) wild-type rat intestinal fatty acid binding protein
B27: 104F, 72A (protein, listed as Rattus norvegicus)
chain: B1 chain with L14Y, G72A, A104F, V117Y
modifications: PEPTIDE (1)...(131) wild-type rat intestinal fatty acid binding protein
B28: 55Q, 72A (protein, listed as Rattus norvegicus)
chain: B1 chain with L14Y, F55Q, G72A, V117Y
modifications: PEPTIDE (1)...(131) wild-type rat intestinal fatty acid binding protein
B29: 21W 78I 72A (protein, listed as Rattus norvegicus)
chain: B1 chain with L14Y, M21W, G72A, L78I, V117Y
modifications: PEPTIDE (1)...(131) wild-type rat intestinal fatty acid binding protein
B30: 55V, 72A (protein, listed as Rattus norvegicus)
chain: B1 chain with L14Y, F55V, G72A, V117Y
modifications: PEPTIDE (1)...(131) wild-type rat intestinal fatty acid binding protein
B31: 23Y, 72A (protein, listed as Rattus norvegicus)
chain: B1 chain with L14Y, I23Y, G72A, V117Y
modifications: PEPTIDE (1)...(131) wild-type rat intestinal fatty acid binding protein
B32: 106D, 72A (protein, listed as Rattus norvegicus)
chain: B1 chain with L14Y, G72A, R106D, V117Y
modifications: PEPTIDE (1)...(131) wild-type rat intestinal fatty acid binding protein
B33: 14L 72G 117I (protein, listed as Rattus norvegicus)
chain: B1 chain with V117I
modifications: PEPTIDE (1)...(131) wild-type rat intestinal fatty acid binding protein
B34: 49D, 72A (protein, listed as Rattus norvegicus)
chain: B1 chain with L14Y, V49D, G72A, V117Y
modifications: PEPTIDE (1)...(131) wild-type rat intestinal fatty acid binding protein

Experiment: Baseline fluorescence ratio Ro of probe in absence of analyte
Conditions: baseline fluorescence ratio of probe

Molecule	Ro
B1	0.280
B2	0.486
B3	0.124
B4	0.229
B5	0.139
B6	0.262
B7	0.239
B8	0.231
B9	0.314
B10	0.241
B11	0.878
B12	0.176
B13	0.255
B14	0.181
B15	0.301
B16	0.290

Molecule	Ro
B17	0.269
B18	0.363
B19	0.110
B20	0.164
B21	0.155
B22	0.377
B23	0.162
B24	0.616
B25	0.263
B26	0.325
B27	0.344
B28	0.225
B29	0.664
B30	0.169
B31	0.265

Same assay, conditions: baseline fluorescence ratio of probe, no fatty acid

Molecule	Ro
B1	0.280
B2	0.486
B32	0.240
B3	0.124
B33	0.246
B5	0.139
B6	0.262
B7	0.239
B8	0.231
B10	0.241
B34	0.231
B11	0.878

Changes are numbered by the printed parent chain.
